From paper PMC10726135

Sequences of proteins named here, by UniProt entry; tags and fusion partners are left off.
UniProt P06537: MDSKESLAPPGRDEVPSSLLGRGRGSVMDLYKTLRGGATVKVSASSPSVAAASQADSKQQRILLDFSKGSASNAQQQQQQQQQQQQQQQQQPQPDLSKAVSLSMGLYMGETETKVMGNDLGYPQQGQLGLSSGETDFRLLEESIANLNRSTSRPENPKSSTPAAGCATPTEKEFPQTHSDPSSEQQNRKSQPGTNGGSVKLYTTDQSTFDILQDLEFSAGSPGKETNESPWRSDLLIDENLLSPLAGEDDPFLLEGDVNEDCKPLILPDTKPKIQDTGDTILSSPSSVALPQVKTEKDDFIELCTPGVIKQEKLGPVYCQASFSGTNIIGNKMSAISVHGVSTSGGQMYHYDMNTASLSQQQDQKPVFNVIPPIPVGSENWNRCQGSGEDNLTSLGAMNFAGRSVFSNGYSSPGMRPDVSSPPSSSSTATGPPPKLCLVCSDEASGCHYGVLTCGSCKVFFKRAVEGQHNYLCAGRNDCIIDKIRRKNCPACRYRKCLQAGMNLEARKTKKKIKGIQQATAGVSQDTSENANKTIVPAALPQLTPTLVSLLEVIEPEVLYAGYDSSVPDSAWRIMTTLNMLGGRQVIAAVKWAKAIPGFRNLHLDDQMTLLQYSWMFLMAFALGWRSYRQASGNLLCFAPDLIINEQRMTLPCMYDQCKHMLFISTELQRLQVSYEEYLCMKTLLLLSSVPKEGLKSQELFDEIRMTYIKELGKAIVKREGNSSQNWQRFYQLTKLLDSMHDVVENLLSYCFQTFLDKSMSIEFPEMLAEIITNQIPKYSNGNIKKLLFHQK
UniProt P22361: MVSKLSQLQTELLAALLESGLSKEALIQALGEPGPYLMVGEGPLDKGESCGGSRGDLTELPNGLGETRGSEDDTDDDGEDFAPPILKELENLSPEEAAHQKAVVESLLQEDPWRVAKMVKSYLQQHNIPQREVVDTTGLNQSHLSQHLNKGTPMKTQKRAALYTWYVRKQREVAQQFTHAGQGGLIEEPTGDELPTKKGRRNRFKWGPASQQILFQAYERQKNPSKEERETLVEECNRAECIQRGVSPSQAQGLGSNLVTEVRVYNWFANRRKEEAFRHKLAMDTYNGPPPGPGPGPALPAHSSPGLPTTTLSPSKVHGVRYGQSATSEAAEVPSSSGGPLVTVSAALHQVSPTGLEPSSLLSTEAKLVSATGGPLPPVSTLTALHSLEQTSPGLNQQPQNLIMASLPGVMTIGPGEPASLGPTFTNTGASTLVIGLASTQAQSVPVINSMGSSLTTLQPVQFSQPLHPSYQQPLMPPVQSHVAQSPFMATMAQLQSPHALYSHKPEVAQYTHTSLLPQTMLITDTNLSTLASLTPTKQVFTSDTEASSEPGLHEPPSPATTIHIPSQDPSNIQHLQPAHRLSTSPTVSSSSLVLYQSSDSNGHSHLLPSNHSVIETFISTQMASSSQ
UniProt O35185: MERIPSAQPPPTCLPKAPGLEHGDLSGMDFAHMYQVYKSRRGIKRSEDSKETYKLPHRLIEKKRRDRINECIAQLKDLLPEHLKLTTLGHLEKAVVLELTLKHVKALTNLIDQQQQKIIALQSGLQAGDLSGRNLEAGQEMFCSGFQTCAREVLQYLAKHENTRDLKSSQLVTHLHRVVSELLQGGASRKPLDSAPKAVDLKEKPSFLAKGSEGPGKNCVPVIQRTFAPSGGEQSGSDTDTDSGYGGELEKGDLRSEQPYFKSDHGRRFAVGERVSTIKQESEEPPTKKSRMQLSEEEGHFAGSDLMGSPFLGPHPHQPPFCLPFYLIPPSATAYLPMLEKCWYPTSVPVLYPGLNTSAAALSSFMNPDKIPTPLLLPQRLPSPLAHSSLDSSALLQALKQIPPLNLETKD
UniProt Q9WTL8: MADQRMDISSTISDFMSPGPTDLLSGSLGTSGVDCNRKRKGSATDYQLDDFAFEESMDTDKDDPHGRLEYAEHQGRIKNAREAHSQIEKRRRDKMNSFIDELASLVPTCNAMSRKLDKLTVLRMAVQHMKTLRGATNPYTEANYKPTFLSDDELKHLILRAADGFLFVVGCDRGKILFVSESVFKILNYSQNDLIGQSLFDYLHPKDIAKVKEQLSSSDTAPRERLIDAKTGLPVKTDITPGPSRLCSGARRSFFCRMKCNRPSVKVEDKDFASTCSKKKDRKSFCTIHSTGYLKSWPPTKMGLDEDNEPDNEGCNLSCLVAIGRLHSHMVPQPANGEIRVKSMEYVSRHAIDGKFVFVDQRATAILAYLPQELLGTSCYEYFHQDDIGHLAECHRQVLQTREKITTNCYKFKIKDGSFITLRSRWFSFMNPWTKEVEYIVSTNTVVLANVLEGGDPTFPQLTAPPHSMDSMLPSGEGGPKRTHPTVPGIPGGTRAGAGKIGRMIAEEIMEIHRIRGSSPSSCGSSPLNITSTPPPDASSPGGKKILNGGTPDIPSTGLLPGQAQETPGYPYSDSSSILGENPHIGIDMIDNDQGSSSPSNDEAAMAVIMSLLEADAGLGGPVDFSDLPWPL
UniProt Q60644: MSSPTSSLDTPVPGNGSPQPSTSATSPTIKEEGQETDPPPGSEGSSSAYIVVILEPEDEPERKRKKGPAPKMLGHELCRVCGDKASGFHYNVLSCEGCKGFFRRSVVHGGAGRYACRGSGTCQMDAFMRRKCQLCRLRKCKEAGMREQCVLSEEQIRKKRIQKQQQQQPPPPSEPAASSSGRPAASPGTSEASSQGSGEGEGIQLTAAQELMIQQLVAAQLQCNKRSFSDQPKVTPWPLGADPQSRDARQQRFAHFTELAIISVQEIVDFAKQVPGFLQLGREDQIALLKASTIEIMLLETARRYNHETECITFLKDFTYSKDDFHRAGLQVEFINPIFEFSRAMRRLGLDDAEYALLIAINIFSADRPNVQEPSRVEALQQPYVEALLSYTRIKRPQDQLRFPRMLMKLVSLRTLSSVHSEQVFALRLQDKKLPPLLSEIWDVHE

T1: P1-HNF4α (Hepatocyte Nuclear Factor 4 alpha from the P1 promoter, exon 1A), HNF4α in WT livers (mouse (endogenous in liver)) (UniProt P49698)
T1 sequence: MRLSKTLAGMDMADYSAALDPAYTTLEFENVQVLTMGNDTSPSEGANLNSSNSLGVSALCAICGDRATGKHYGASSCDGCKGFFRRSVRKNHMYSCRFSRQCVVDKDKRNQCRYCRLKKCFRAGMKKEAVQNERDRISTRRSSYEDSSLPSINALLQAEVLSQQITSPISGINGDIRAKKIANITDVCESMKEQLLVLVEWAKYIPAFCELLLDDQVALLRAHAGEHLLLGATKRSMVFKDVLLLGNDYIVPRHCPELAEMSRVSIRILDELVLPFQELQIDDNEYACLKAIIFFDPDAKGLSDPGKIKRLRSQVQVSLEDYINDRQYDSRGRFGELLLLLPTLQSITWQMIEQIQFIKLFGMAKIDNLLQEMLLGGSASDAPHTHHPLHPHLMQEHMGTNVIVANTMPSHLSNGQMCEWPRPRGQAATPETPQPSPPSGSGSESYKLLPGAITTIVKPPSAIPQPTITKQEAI


Columns and labels:
[1] = molecular target: T1, P1-HNF4α (Hepatocyte Nuclear Factor 4 alpha from the P1 promoter, exon 1A), HNF4α in WT livers (mouse (endogenous in liver)); assay: affinity purification with mass spectrometry; RIME as in a1 and a2; the text does not tell at which time point (10:30 or 20:30) these pairs were found
[2] = molecular target: T1, P1-HNF4α (Hepatocyte Nuclear Factor 4 alpha from the P1 promoter, exon 1A), HNF4α in WT livers (mouse (endogenous in liver)); assay: affinity purification with mass spectrometry; RIME: livers of WT and α7HMZ male mice (n=3) sacrificed at 10:30 (ZT3.5), crosslinked, IP'd with the P1/P2 HNF4α antibody, MudPIT; proteins at least 8-fold above IgG background; 8-fold difference between WT and α7HMZ taken as unique
[3] = molecular target: T1, P1-HNF4α (Hepatocyte Nuclear Factor 4 alpha from the P1 promoter, exon 1A), HNF4α in WT livers (mouse (endogenous in liver)); assay: affinity purification with mass spectrometry; RIME: livers of WT and α7HMZ male mice (n=3) sacrificed at 20:30 (ZT13.5), crosslinked, IP'd with the P1/P2 HNF4α antibody, MudPIT; proteins at least 8-fold above IgG background; 8-fold difference between WT and α7HMZ taken as unique
[4] = molecular target: T1, P1-HNF4α (Hepatocyte Nuclear Factor 4 alpha from the P1 promoter, exon 1A), HNF4α in WT livers (mouse (endogenous in liver)); assay: affinity purification with mass spectrometry; RIME: livers of WT and α7HMZ male mice (n=3) sacrificed at 10:30 (ZT3.5), crosslinked, IP'd with the P1/P2 HNF4α antibody, MudPIT; proteins at least 8-fold above IgG background; 8-fold difference between WT and α7HMZ taken as unique; remark: listed apart in the source
[5] = molecular target: P2-HNF4α (Hepatocyte Nuclear Factor 4 alpha from exon 1D), HNF4α in α7HMZ livers (mouse (endogenous in liver)); assay: as above

Molecule | binding [4] | binding [5] | binding [1] | binding [2] | binding [3]
NR3C1(GR) (from UniProt P06537 1-792) | – | – | binds | – | –
HNF1A (from UniProt P22361 1-628) | – | – | – | binds | binds
BHLHE40 (from UniProt O35185 1-411) | – | – | – | binds | binds
ARNTL (BMAL1) (from UniProt Q9WTL8 1-632) | – | – | – | no binding | no binding
NR1H2 (from UniProt Q60644 1-446) | – | – | – | binds | –
PPARA (protein, UniProt P23204 1-468) MVDTESPICPLSPLEADDLESPLSEEFLQEMGNIQEISQSIGEESSGSFGFADYQYLGSCPGSEGSVITDTLSPASSPSSVSCPVIPASTDESPGSALNIECRICGDKASGYHYGVHACEGCKGFFRRTIRLKLVYDKCDRSCKIQKKNRNKCQYCRFHKCLSVGMSHNAIRFGRMPRSEKAKLKAEILTCEHDLKDSETADLKSLGKRIHEAYLKNFNMNKVKARVILAGKTSNNPPFVIHDMETLCMAEKTLVAKMVANGVEDKEAEVRFFHCCQCMSVETVTELTEFAKAIPGFANLDLNDQVTLLKYGVYEAIFTMLSSLMNKDGMLIAYGNGFITREFLKNLRKPFCDIMEPKFDFAMKFNALELDDSDISLFVAAIICCGDRPGLLNIGYIEKLQEGIVHVLKLHLQSNHPDDTFLFPKLLQKMVDLRQLVTEHAQLVQVIKKTESDAALHPLLQEIYRDMY | binds | no binding | – | – | –
xenobiotic receptor PXR (NR1I2) (protein, UniProt O54915 1-431) MRPEESWSRVGLVQCEEADSALEEPINVEEEDGGLQICRVCGDKANGYHFNVMTCEGCKGFFRRAMKRNVRLRCPFRKGTCEITRKTRRQCQACRLRKCLESGMKKEMIMSDAAVEQRRALIKRKKREKIEAPPPGGQGLTEEQQALIQELMDAQMQTFDTTFSHFKDFRLPAVFHSGCELPEFLQASLLEDPATWSQIMKDRVPMKISLQLRGEDGSIWNYQPPSKSDGKEIIPLLPHLADVSTYMFKGVINFAKVISYFRDLPIEDQISLLKGATFEMCILRFNTMFDTETGTWECGRLAYCFEDPNGGFQKLLLDPLMKFHCMLKKLQLHKEEYVLMQAISLFSPDRPGVVQRSVVDQLQERFALTLKAYIECSRPYPAHRFLFLKIMAVLTELRSINAQQTQQLLRIQDSHPFATPLMQELFSSTDG | – | binds | – | – | –
NR2C1 (protein, UniProt Q505F1 1-590) MATIEEIAHQIIDQQMGEIVTEQQTGQKIQIVTALDHSTQGKQFILANHEGSTPGKVFLTTPDAAGVNQLFFTSPDLSAPHLQLLTEKSPDQGPNKVFDLCVVCGDKASGRHYGAITCEGCKGFFKRSIRKNLVYSCRGSKDCVINKHHRNRCQYCRLQRCIAFGMKQDSVQCERKPIEVSREKSSNCAASTEKIYIRKDLRSPLAATPTFVTDSETARSAGLLDSGMFVNIHPSGIKTEPAMLMAPDKAESCQGDLSTLASVVTSLANLGKAKDLSHCGGDMPVVQSLRNGDTSFGAFHHDIQTNGDVSRAFDTLAKALTPGESSACQSPEEGMEGSPHLIAGEPSFVEKEGPLLSESHVAFRLTMPSPMPEYLNVHYIGESASRLLFLSMHWALSIPSFQALGQENSISLVKAYWNELFTLGLAQCWQVMNVATILATFVNCLHSSLQQDKMSPERRKSLMEHIFKLQEFCNSMVKLCIDGHEYAYLKAIVLFSPDHPGLENMELIERFQEKAYVEFQDYITRTYPDDTYRLSRLLLRLPALRLMNATITEELFFKGLIGNVRIDSVIPHILKMEPADYNSQIIGHSL | binds | no binding | – | – | –
CLOCK (protein, UniProt O08785 1-855) MVFTVSCSKMSSIVDRDDSSIFDGLVEEDDKDKAKRVSRNKSEKKRRDQFNVLIKELGSMLPGNARKMDKSTVLQKSIDFLRKHKETTAQSDASEIRQDWKPTFLSNEEFTQLMLEALDGFFLAIMTDGSIIYVSESVTSLLEHLPSDLVDQSIFNFIPEGEHSEVYKILSTHLLESDSLTPEYLKSKNQLEFCCHMLRGTIDPKEPSTYEYVRFIGNFKSLTSVSTSTHNGFEGTIQRTHRPSYEDRVCFVATVRLATPQFIKEMCTVEEPNEEFTSRHSLEWKFLFLDHRAPPIIGYLPFEVLGTSGYDYYHVDDLENLAKCHEHLMQYGKGKSCYYRFLTKGQQWIWLQTHYYITYHQWNSRPEFIVCTHTVVSYAEVRAERRRELGIEESLPETAADKSQDSGSDNRINTVSLKEALERFDHSPTPSASSRSSRKSSHTAVSDPSSTPTKIPTDTSTPPRQHLPAHEKMTQRRSSFSSQSINSQSVGPSLTQPAMSQAANLPIPQGMSQFQFSAQLGAMQHLKDQLEQRTRMIEANIHRQQEELRKIQEQLQMVHGQGLQMFLQQSNPGLNFGSVQLSSGNSNIQQLTPVNMQGQVVPANQVQSGHISTGQHMIQQQTLQSTSTQQSQQSVMSGHSQQTSLPSQTPSTLTAPLYNTMVISQPAAGSMVQIPSSMPQNSTQSATVTTFTQDRQIRFSQGQQLVTKLVTAPVACGAVMVPSTMLMGQVVTAYPTFATQQQQAQTLSVTQQQQQQQQQPPQQQQQQQQSSQEQQLPSVQQPAQAQLGQPPQQFLQTSRLLHGNPSTQLILSAAFPLQQSTFPPSHHQQHQPQQQQQLPRHRTDSLTDPSKVQPQ | no binding | binds | – | – | no binding

The next lines start with results.

binding [4] | binding [5] | Molecule | binding [1] | binding [2] | binding [3]
binds | no binding | NR2C2 (protein, UniProt P49117 1-596) MTSPSPRIQIISTDSAVASPQRIQIVTDQQTGQKIQIVTAVDASGSSKQQFILTSPDGAGTGKVILASPETSSAKQLIFTTSDNLVPGRIQIVTDSASVERLLGKADVQRPQVVEYCVVCGDKASGRHYGAVSCEGCKGFFKRSVRKNLTYSCRSSQDCIINKHHRNRCQFCRLKKCLEMGMKMESVQSERKPFDVQREKPSNCAASTEKIYIRKDLRSPLIATPTFVADKDGARQTGLLDPGMLVNIQQPLIREDGTVLLAADSKAETSQGALGTLANVVTSLANLSESLNNGDASEMQPEDQSASEITRAFDTLAKALNTTDSASPPSLADGIDASGGGSIHVISRDQSTPIIEVEGPLLSDTHVTFKLTMPSPMPEYLNVHYICESASRLLFLSMHWARSIPAFQALGQDCNTSLVRACWNELFTLGLAQCAQVMSLSTILAAIVNHLQNSIQEDKLSGDRIKQVMEHIWKLQEFCNSMAKLDIDGYEYAYLKAIVLFSPDHPGLTGTSQIEKFQEKAQMELQDYVQKTYSEDTYRLARILVRLPALRLMSSNITEELFFTGLIGNVSIDSIIPYILKMETAEYNGQITGASL | – | – | –
– | binds | CRY1 (protein, UniProt P97784 1-606) MGVNAVHWFRKGLRLHDNPALKECIQGADTIRCVYILDPWFAGSSNVGINRWRFLLQCLEDLDANLRKLNSRLFVIRGQPADVFPRLFKEWNITKLSIEYDSEPFGKERDAAIKKLATEAGVEVIVRISHTLYDLDKIIELNGGQPPLTYKRFQTLVSKMEPLEMPADTITSDVIGKCMTPLSDDHDEKYGVPSLEELGFDTDGLSSAVWPGGETEALTRLERHLERKAWVANFERPRMNANSLLASPTGLSPYLRFGCLSCRLFYFKLTDLYKKVKKNSSPPLSLYGQLLWREFFYTAATNNPRFDKMEGNPICVQIPWDKNPEALAKWAEGRTGFPWIDAIMTQLRQEGWIHHLARHAVACFLTRGDLWISWEEGMKVFEELLLDADWSINAGSWMWLSCSSFFQQFFHCYCPVGFGRRTDPNGDYIRRYLPVLRGFPAKYIYDPWNAPEGIQKVAKCLIGVNYPKPMVNHAEASRLNIERMKQIYQQLSRYRGLGLLASVPSNSNGNGGLMGYAPGENVPSCSSSGNGGLMGYAPGENVPSCSGGNCSQGSGILHYAHGDSQQTHSLKQGRSSAGTGLSSGKRPSQEEDAQSVGPKVQRQSSN | – | – | –
binds | no binding | NFIL3 (protein, UniProt O08750 1-462) MQLRKMQTIKKEPAPLDPTSSSDKMLLLNSALAEVAEDLASGEDLLLNEGSMGKNKSSACRRKREFIPDEKKDAMYWEKRRKNNEAAKRSREKRRLNDLVLENKLIALGEENATLKAELLSLKLKFGLISSTAYAQEIQKLSNSTAVYFQDYQTSKAAVSSFVDEHEPAMVAGSCISVIKHSPQSSLSDVSEVSSVEHTQESPAQGGCRSPENKFPVIKQEPVELESFAREAREERGTYSTSIYQSYMGSSFSTYSHSPPLLQVHGSTSNSPRTSEADEGVVGKSSDGEDEQQVPKGPIHSPVELQRVHATVVKVPEVNPSALPHKLRIKAKAMQVKVEALDSEFEGMQKLSSPADAIAKRHFDLEKHGTSGMAHSSLPPFSVQVTNIQDWSLKSEHWHHKELSSKTQSSFKTGVVEVKDGGYKVSEAENLYLKQGIANLSAEVVSLKRFIATQPISASDSR | – | – | –

No constants are given. Whether binding was seen depends on the method and setting. In cells and extracts the contact can be indirect. Here binding means that the protein was enriched with, or labelled near, the bait; the list need not be complete. For part of these data: No binding means not detected with the bait.
